Laboratory results published in patent publication US20100129365A1.
Substitutions are numbered along the chain they refer to. These are yes or no findings as the source states them, for the method shown. Some binding calls cover weakened binding; strength is not graded here. For part of these data: Sequences can lack the tags named with a protein. Blank lines part the entries; values can stand above or below the binder they belong to.

Protein sequences, listed by entry. Tags and fused reporters are not part of them. Lines headed by an entry give the natural chain unless they say otherwise; changes in a name come on top.
UniProt Q10589: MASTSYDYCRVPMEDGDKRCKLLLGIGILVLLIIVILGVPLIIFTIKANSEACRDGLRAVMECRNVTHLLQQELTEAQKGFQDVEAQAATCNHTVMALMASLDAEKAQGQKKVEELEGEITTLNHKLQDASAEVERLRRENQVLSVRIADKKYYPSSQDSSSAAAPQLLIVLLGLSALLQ

How the values were obtained:
[1] = biological target: human Bst2 decoy (soluble Bst2 protein fragment, six-histidine tagged) (human) (UniProt Q10589); test: phage ELISA on coated Bst2 decoy, anti-HA-HRP detection
[2] = biological target: T1, mouse Damp1 decoy (soluble Damp1 protein fragment, His tagged) (mouse) (UniProt Q8R2Q8); test: phage ELISA on coated Damp1 decoy, anti-HA-HRP detection
T1 sequence: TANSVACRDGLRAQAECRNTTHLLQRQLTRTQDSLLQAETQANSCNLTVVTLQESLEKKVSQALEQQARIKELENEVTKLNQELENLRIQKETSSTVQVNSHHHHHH

binding [1]: binds | binding [2]: binds
B1: anti-Bst2/Damp1 clone 2-4 (Fab, V domains shown)
VH: AQQLVESGGRLVTPGGTLTLTCTASGIDLSSYHMQWVRQAPGKGLEYIGFIDTVGSAYYASWAKGRFTISRTSTTVDLKMTSLTAADTATYFCAGDSGYSIGTLWGQGTLVTVSS
VL: ELVLTQTPSSVSAAVGGTVTINCQATQSIGINLAWYQQKPGQPPKLLIWYASDLASGVPSRFKGSGFGTQFTLTINGVQREDAATYYCLGSYGSGDRAFGAGTNVEIKR

binding [1]: binds
B2: anti-Bst2/Damp1 clone 2-24 (Fab, V domains shown)
VH: AQSVEESRGGLFKPTDTLTLTCTVSGFSLSTYEMNWVRQAPGSGLEYIGIINSAGTTYYASWAKSRSTITRNTNENTVTLKMTSLTAADTATYFCARDLGYSSDIWGPGTLVTVSS
VL: B1 VL with L4M, V11T, A13T, T26S, S28N, V58A, N76S, S91T, A101T

binding [1]: binds
B3: anti-Bst2/Damp1 clone 2-7 (Fab, V domains shown)
VH: AQSVKESEGGLFKPTDTLTLTCTVSGFSLSSHEMNWVRQAPGNGLEYIGIINSYANTYYAGWAKSRSTITRNTNENTVTLTMTSLTAADTATYFCVRDLGYSSDIWGPGTLVTISS
VL: B1 VL with L4M, V11T, A13T, T26S, S28N, N76S

binding [1]: binds | binding [2]: binds
B4: anti-Bst2/Damp1 clone 2-5 (Fab, V domains shown)
VH: QQQLVESGGGLVTPGTPLTLTCTVSGFSLSSYAMIWVRQAPGKGLEYIGIIRSSGNTYYASWAKGRFTISKTSTTVDLKITSPTTEDTATYFCARDSGYSFGLWGQGTLVTVSS
VL: B1 VL with L4M, T26S, Q27K, S28N, L46Q

binding [1]: binds | binding [2]: binds
B5: anti-Bst2/Damp1 clone 2-14 (Fab, V domains shown)
VH: B2 VH with E5K, R8E, T31S, S43K, N52R, A54D, T56S, E75L, S103N, I105V
VL: B1 VL with V3D, V11T, A13T, T26S, S28N, P59S, N76S, S91T

binding [1]: binds | binding [2]: binds
B6: anti-Bst2/Damp1 clone 2-9 (Fab, V domains shown)
VH: AQSLEESGGRLVTPGTPLTLTCTVSGIDLSSYEMSWVRQAPGKGLEYIGFISTSGNTYYASWAKGRFTISKTSTTVDLKITSPTIEDTAAYFCARGPAKSGYGTRLDLWGQGTLVTVSS
VL: B1 VL with V3D, V11T, A13T, T26S, S28N, Y36F, N76S, G77N, Q79E, S91T

binding [1]: binds | binding [2]: binds
B7: anti-Bst2/Damp1 clone 2-10 (Fab, V domains shown)
VH: AQSLEESGGRLVKPDETLTLTCTVSGIDLSSYMIYWVRQAPGKGLEYIGFIYGSGDTYYATWAKGRFTISRPSTTVDLKITSPTTGDTATYFCARSSGWGYGLDLWGPGTLVTISS
VL: ELDLTQTPSSTSTAVGGTVTINCQASQSINVWLSWYQQKPGQPPKLLIYQASKLASGVPSRFKGSGSGTQFTLTISGVQREDVATYYCLGIYNDIDTAFGGGTEVVVKR

binding [1]: binds | binding [2]: binds
B8: anti-Bst2/Damp1 clone 2-13 (Fab, V domains shown)
VH: QEQLVESGGRLVTPGGSLTITCTVSGIDLSGYAMGWVRQAPGKGLEYIGIIGTSDTTYYASWAKGRFTISKTSSTTVDLKMTSLTTEDTATYFCVRSPGGSADLWGQGTLVTISS
VL: ELDMTQTPSSTSTAVGGTVTMNCQASQNIGINLAWYQQKPGQPPKLLIWYASDLASGVPSRFKGSGFGTQFTLTISGMQREDAATYYCLGTYGSGVRAFGAGTNVEIKR

binding [1]: binds
B9: anti-Bst2/Damp1 clone 2-19 (Fab, V domains shown)
VH: AQSVKESEGGLFKPTDTLTLTCTVSGFSLSSYEMNWVRQAPGKGLEYIGIIRSDGSTYYASWAKSRSTITRNTNLNTVTLKMTSLTAADTATYFCARDLGYSNDVWGPGTLVTISS
VL: B8 VL with D3V, M4L, M21I, A51T, K63R, G77A, M78I

binding [1]: binds
B10: anti-Bst2/Damp1 clone 2-11 (Fab, V domains shown)
VH: QEQLMESGGGLVTPGGILSLTCTASGFSISSYRMGWVRQAPGKGLEWIGFINNYGSAYYASWAKSRSTITRNTNLNTVTLKMTSLTAADTATYFCARESYSYGYAYDIWGPGTLVTVSS
VL: ELDLTQTPSSTSTTVGGTVTINCRASQIIGINLAWYQQKPGQPPKLLIWYASDLASGVPSRFRGNVSGSQFTLTISGVQREDAATYYCLGTYGSGVRAFGAGTNVEIKR

binding [1]: binds | binding [2]: binds
B11: anti-Bst2/Damp1 clone 2-15 (Fab, V domains shown)
VH: AQSVKESEGRLVTPGTPLTLTCTVSGFSLSNSGMSWVRQAPGKGLEWIGLINSYGTTYYASWAKGRFTISKTSTTVELKITSPTTEDTATYFCARGAGSSYGLWGQGTLVTVSS
VL: ELVMTQTPSSTSTAVGDTVTIKCQASQSIGSNLAWYQQKPGQPPKILIYSASNLASGVPSRFKGSGSGTEYTLTISGVQREDAATYYCLGSDSSWDTVFGGGTELEILR
